Source: PubChem BioAssay AID2685 (National Center for Advancing Translational Sciences (NCATS), 2010)
The other results are listed elsewhere or left out. Further columns of the screen follow, without active or inactive calls. Most of these compounds were active or inconclusive in the main read-out, so they are no random draw. Potencies come from curve fits of mixed quality, noted in brackets.

Test: qHTS Assay for Lipid Storage Modulators in Drosophila S3 Cells;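 for cell number change: cells counted by Cell Tracker Red CMTPX staining in the red channel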
Settings: BODIPY lipid droplet fluorescence, 18-24 h; for cell number change: measured here: cell count max response, cells fed with added oleic acid
Outline: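 Drosophila S3 cells loaded with oleic acid (400 uM, as added) and compounds at several concentrations; lipid droplets imaged by 488-nm laser-scanning cytometry, 500–530 nm intensity and object ratio to cell channel. Percent activity normalized to 20 uM Triacsin C.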

[1] = measured here: cell number channel AC50, cells fed with added oleic acid
[2] = measured here: lipid fluorescence (Fed channel) AC50, cells fed with added oleic acid

| Structure (SMILES) | cell number change | AC50 [1] | AC50 [2] |
| --- | --- | --- | --- |
| CN(CC(=O)O)c1ccc(C(F)(F)F)cc1[N+](=O)[O-] | -40.9% | 6.51 µM [falling, single point] | – |
| Nc1nnc(SCC(=O)Nc2cccc(S(=O)(=O)N3CCCCC3)c2)s1 | -8.9% | – | 18.4 µM [rising, single point] |
| Cc1ccc(OCCN2CCN(c3ncnc4sc(C)c(C)c34)CC2)cc1 | -33.3% | 32.6 µM [falling, single point] | – |
| COC(=O)c1sc(NC(=O)COc2ccc(C)cc2)nc1C | 148% | 8.2 µM [rising, partial curve] | 2.06 µM [rising, partial curve] |
| CC1CCN(C(=O)c2[nH]cnc2C(=O)Nc2ccon2)CC1 | 2.59% | – | – |
| O=C(NC1CC1)c1ccc2c(c1)S(=O)(=O)c1cc(Cl)ccc1C2=O | 8.78% | – | 6.51 µM [falling, single point] |
| CCSc1nc(C2CC2)cc(-c2cccs2)c1C#N | 66.6% | 13 µM [rising, partial curve] | 6.51 µM [rising, single point] |
| CC(NS(=O)(=O)c1cccc(Cl)c1)C(=O)N(C)C1CCN(C)CC1 (stereo not drawn) | -9.47% | 0.116 µM [falling, single point] | – |
| CCC(C)(C)NC(=O)CN(C(=O)CCC(=O)Nc1ccccn1)c1ccc2c(c1)OCO2 | 4.78% | – | – |
| NS(=O)(=O)OCCCCCc1ccccc1 | 22.3% | – | 29.1 µM [rising, single point] |
| COC(=O)c1c(NC(=O)c2c(C)noc2C)sc2c1CCCCCC2 | -9.6% | – | – |
| CCN(CC)c1cc(C)c(C#N)c2nc3ccccc3n12 | 3.04% | – | – |
| O=C(NCc1ccc(C(=O)O)cc1)OCc1ccccc1 | 14.8% | – | 0.00461 µM [rising, full curve, poor fit] |
| COc1ccc(N2C(=O)c3ccccc3NC2c2ccc(OC)c(Cn3cc([N+](=O)[O-])cn3)c2)cc1 (stereo not drawn) | 7.19% | – | 10.3 µM [rising, partial curve] |
| Cc1cc(C)c(NC(=O)CNC(=O)COC(=O)Cc2ccccc2C)c(C)c1 | 30.7% | 29.1 µM [rising, single point] | 29.1 µM [rising, single point] |
| Cn1c(Sc2ccccc2Cl)c(C=O)c2ccccc21 | -28.6% | – | 29.1 µM [falling, single point] |
| CSc1cccc(NC(=O)CN(C2CCCCC2)S(C)(=O)=O)c1 | 5.81% | – | 16.4 µM [rising, single point] |
| COc1ccc(CNCC(=O)Nc2sccc2C#N)cc1 | 12.4% | – | 4.11 µM [falling, single point] |
| Cc1ccnc(NC(=O)c2cccc(S(=O)(=O)N3CCN(c4ccc(F)cc4)CC3)c2)c1 | 16.8% | – | 8.2 µM [rising, partial curve] |
| CC(C)c1ccccc1NC(=S)N1CCN(S(=O)(=O)c2cccs2)CC1 | – | 0.00461 µM [falling, full curve, poor fit] | – |
| COC(=O)CNC(=O)CN1c2cccc3cccc(c23)S1(=O)=O | -6.7% | – | – |

Full records, looked up by structure:
CC1CCN(C(=O)c2[nH]cnc2C(=O)Nc2ccon2)CC1 is listed with cell number change: 2.59%
COc1ccc(N2C(=O)c3ccccc3NC2c2ccc(OC)c(Cn3cc([N+](=O)[O-])cn3)c2)cc1 (stereo not drawn) is listed with cell number change: 7.19%; AC50 [2]: 10.3 µM [rising, partial curve]
CCN(CC)c1cc(C)c(C#N)c2nc3ccccc3n12 is listed with cell number change: 3.04%

Following part.

| Structure (SMILES) | cell number change | AC50 [1] | AC50 [2] |
| --- | --- | --- | --- |
| O=C1CCCC/C1=C/NCc1ccc(F)cc1 | 14.6% | – | 0.517 µM [falling, single point] |
| CC1CCC/C(=N\NC(=O)c2ccncc2)C1 (stereo not drawn) | -13.8% | – | 32.6 µM [falling, partial curve, poor fit] |
| COC(=O)c1ccc(CNC(=O)COC(=O)C2CCC(C(C)(C)C)CC2)cc1 (stereo not drawn) | 5.71% | 0.116 µM [rising, full curve, poor fit] | 0.651 µM [rising, full curve] |
| CC(=O)Nc1cc(C(=O)OCC(=O)c2ccc(C)cc2)ccc1C | 12.4% | – | 0.651 µM [rising, partial curve] |
| COc1ccc(CNC(=O)CN(C(=O)c2csnn2)c2ccc(C(C)=O)cc2)cc1 | -1.28% | – | 6.51 µM [rising, partial curve] |
| O=C(Nc1ccc(Cl)cc1)Nc1ccccn1 | -19.8% | – | 6.51 µM [falling, single point] |
| O=C(O)c1ccccc1SCC(=O)N1CCc2ccccc21 | -107% | – | – |
| O=C(Cn1nnc2ccccc2c1=O)Nc1ccc(S(=O)(=O)N2CCOCC2)cc1 | – | 0.164 µM [falling, full curve] | – |
| O=C(NC1CC1)C1CCN(C(=O)c2ccc(Cl)cc2)CC1 | 16.4% | – | – |
| CS(=O)(=O)c1ccc(Cl)c(NC(=O)COC(=O)c2ccc(-n3cnnn3)cc2)c1 | -31% | 18.4 µM [falling, single point] | 29.1 µM [falling, single point] |
| Cc1cccc(Oc2cc(NC(=O)c3ccccc3)cc([N+](=O)[O-])c2)c1 | 11% | – | – |
| Cc1ccc(CSCC2Nc3ccc(C(=O)N4CCN(c5ccc(F)cc5)CC4)cc3NC2=O)cc1 (stereo not drawn) | -1.83% | – | – |
| O=C(CNC(=O)c1ccco1)NCC(=O)OCc1ccccc1Cl | -2.63% | – | 2.51 µM [falling, partial curve] |
| O=C(Nc1ccc(Cl)cn1)c1ccc(COc2ccccc2Br)o1 | -4.44% | 0.731 µM [rising, single point] | 0.461 µM [rising, full curve, poor fit] |
| CC(=O)N1N=C(c2ccccc2)CC1c1ccc2c(c1)OCO2 (stereo not drawn) | 8.66% | – | 1.46 µM [rising, full curve, poor fit] |
| Cc1cc2nnc(SCCCCN3C(=O)c4ccccc4C3=O)n2c2ccccc12 | – | – | 29.1 µM [rising, single point] |
| Cc1cc(-c2csc(Nc3ccccn3)n2)ccc1F | -14.5% | – | – |
| Cc1nc([N+](=O)[O-])cn1CC(=O)c1ccc(Br)cc1 | 12.5% | – | 6.51 µM [rising, partial curve, poor fit] |
| CCOC(=O)c1c(NC(=O)C2C3C=CC(C3)C2C(=O)O)sc2c1CCC(CC)C2 (stereo not drawn) | -33.6% | 25.9 µM [falling, single point] | – |
| CCOC(=O)c1cc(-c2ccc(C)o2)n[nH]1 | 18.6% | – | – |
| CCN(CC)C(=O)N1c2ccccc2C=Cc2ccccc21 | – | 1.46 µM [falling, partial curve] | – |

| Structure (SMILES) | cell number change | AC50 [1] | AC50 [2] |
| --- | --- | --- | --- |
| Nc1c(NCCN2CCOCC2)c2ccccc2oc1=O | 23.6% | – | – |
| Cc1ccc(OCC(=O)Nc2cc(C(C)(C)C)on2)cc1C | 18.4% | – | 18.4 µM [falling, single point] |
| O=C(CNc1cccc2ccccc12)N/N=C/c1ccc[nH]1 | 10.6% | 1.84 µM [rising, single point] | 4.11 µM [rising, partial curve] |
| COc1cccc(OC)c1C(=O)NC(C)CCc1ccccc1 (stereo not drawn) | -1.82% | – | – |
| CN(C)CCn1c2c(c(SCC(=O)Nc3ccc4c(c3)OCCO4)nc1=O)CCCC2 | – | 0.116 µM [falling, full curve, poor fit] | – |
| O=C(OCC(=O)N1CCN(C(=O)c2ccco2)CC1)c1cc(-c2ccccc2)nc2ccccc12 | -27.8% | 3.26 µM [falling, full curve, poor fit] | 29.1 µM [falling, single point] |
| CCS(=O)(=O)c1ncc(Cl)c(C(=O)Nc2ccc(S(=O)(=O)N3CCCC(C)C3)cc2)n1 (stereo not drawn) | – | – | 0.082 µM [falling, full curve, poor fit] |
| Cc1cc(N2CCN(Cc3cn(C)nc3-c3ccccc3F)CC2)cc(C)n1 | -10.1% | – | – |
| COc1cc(OC)cc(C(=O)NCC(=O)N2CCCCC2)c1 | -11.1% | – | – |
| CCOc1ccc2[nH]c3nc(SCC(=O)OC(C)C)nnc3c2c1 | -26.5% | – | 0.58 µM [falling, partial curve, poor fit] |
| CC(C)(C)C(=O)NC(NC(=O)C(C)(C)C)c1ccc([N+](=O)[O-])cc1 | – | 2.31 µM [rising, partial curve] | 1.64 µM [rising, single point] |
| O=C(N/N=C/c1cc(Cl)ccc1O)c1ccncc1 | -1.75% | – | 0.146 µM [rising, full curve, poor fit] |
| CS(=O)(=O)c1ccc2nc(NC(=O)C3C4C=CC(C4)C3C(=O)O)sc2c1 (stereo not drawn) | – | 6.51 µM [rising, single point] | – |
| COc1ccc(CC(=O)OCC(=O)NC(=O)NC23CC4CC(CC(C4)C2)C3)cc1 | -77.1% | 14.6 µM [falling, partial curve, poor fit] | 0.411 µM [falling, full curve] |
| CCCOc1ccc(/C(O)=C2/C(=O)C(=O)N(CCN(C)C)C2c2ccc(OC)c(OC)c2)cc1 (stereo not drawn) | -5.7% | – | 14.6 µM [falling, partial curve, poor fit] |
| CCc1nc(SCC(=O)Nc2ccc(Br)cn2)n[nH]1 | 18.8% | – | 1.84 µM [rising, single point] |
| CCn1c(=O)cc(SCC(=O)Nc2cccnc2)c2ccccc21 | – | 0.103 µM [rising, full curve, poor fit] | 0.092 µM [rising, full curve, poor fit] |
| CCC1(c2ccccc2)NC(=O)N(CC(=O)Nc2cc(S(=O)(=O)N3CCCCC3)ccc2OC(C)C)C1=O (stereo not drawn) | 7.27% | – | – |
| CC1(C)O[C@@H]2[C@H](O1)[C@@H](COS(=O)(=O)O)O[C@H]2n1cnc2c(=O)[nH]cnc21 | 5.16% | 3.26 µM [falling, partial curve, poor fit] | 7.31 µM [rising, partial curve, poor fit] |
| CCOC(=O)c1nc(S(C)(=O)=O)ncc1Cl | -89.7% | 8.2 µM [falling, partial curve] | 3.66 µM [falling, partial curve] |
| CCOc1ccc(-c2nonc2NC(=O)c2ccco2)cc1 | 4.62% | – | – |
